This note sets out measurements from paper PMC11625895.

Chains of the proteins cited; added tags and fusions are not shown.
UniProt P19525: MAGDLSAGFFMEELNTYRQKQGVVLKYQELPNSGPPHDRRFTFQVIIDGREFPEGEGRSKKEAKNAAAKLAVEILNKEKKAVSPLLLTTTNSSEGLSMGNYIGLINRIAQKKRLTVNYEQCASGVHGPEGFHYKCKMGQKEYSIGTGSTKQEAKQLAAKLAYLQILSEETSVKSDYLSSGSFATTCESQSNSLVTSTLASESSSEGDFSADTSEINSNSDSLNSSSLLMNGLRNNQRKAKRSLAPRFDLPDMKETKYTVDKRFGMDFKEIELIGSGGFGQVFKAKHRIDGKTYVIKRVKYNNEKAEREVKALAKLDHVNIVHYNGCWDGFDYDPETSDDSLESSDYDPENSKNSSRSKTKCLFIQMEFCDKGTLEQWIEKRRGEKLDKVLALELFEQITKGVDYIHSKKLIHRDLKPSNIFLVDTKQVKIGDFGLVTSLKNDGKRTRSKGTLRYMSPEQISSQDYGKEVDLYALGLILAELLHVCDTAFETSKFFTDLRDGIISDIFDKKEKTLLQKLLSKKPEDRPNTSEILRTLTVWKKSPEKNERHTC

The assay has as its target PKR (human (endogenous in HeLa)) (UniProt P19525). The assay is described as follows: co-IP; HeLa M cells transfected with Flag-wt PACT/RAX or Flag-lear-5J, harvested 24 h later; whole-cell extract immunoprecipitated overnight at 4°C with anti-PKR antibody (71/10) on protein A sepharose in IP buffer (20 mM Tris-HCl pH 7.5, 150 mM NaCl, 1 mM EDTA, 1% Triton X-100, 20% glycerol); three washes; blot with anti-Flag M2.

No constants are given. Whether binding was seen depends on the method and setting. In cells and extracts the contact can be indirect. Some binding calls cover weakened binding; strength is not graded here. Sequences can lack the tags named with a protein.

B1: Flag-tagged wt PACT/RAX (protein, UniProt Q9WTX2 1-313)
chain: MSHSRHRAEAPPLQREDSGTFSLGKMITAKPGKTPIQVLHEYGMKTKNIPVYECERSDVQVHVPTFTFRVTVGDITCTGEGTSKKLAKHRAAEAAINILKANASICFAVPDPLMPDPSKQPKNQLNPIGSLQELAIHHGWRLPEYTLSQEGGPAHKREYTTICRLESFMETGKGASKKQAKRNAAEKFLAKFSNISPENHISLTNVVGHSLGCTWHSLRNSPGEKINLLKRSLLSLPNTDYIQLLSEIASEQGFNITYLDIEELSANGQYQCLAELSTSPITVCHGSGISCGNAQSDAAHNALQYLKIIAERK
In the case of B1, the binding entry is listed as “binds”.
